From patent US10022342B2, “Methods and compositions for treating multiple myeloma” (Ohio State Innovation Foundation, priority 2015, dated 2018) come the findings set out here.

This test relates to MM cells. The test is described as follows: IC50 concentrations of HDAC inhibitors in MM cells. It is filed as cell-based. The note with it: Homo sapiens.

Regarding `O=C(CCCCCCC(=O)Nc1ccccc1)NO` [SAHA, suberoylanilide hydroxamic acid, reference compound], the half-inhibitory concentration (IC50) (in general, the concentration needed to halve the response being measured) came to 1 µM.
